Data: publication PMC3527473, “The C-Terminus of ClpC1 of Mycobacterium tuberculosis Is Crucial for Its Oligomerization and Function” (PLoS ONE, 2012)
These are yes or no findings as the source states them, for the method shown.

The chains behind the UniProt entries cited, without tags or fusion partners.
UniProt P9WPC9: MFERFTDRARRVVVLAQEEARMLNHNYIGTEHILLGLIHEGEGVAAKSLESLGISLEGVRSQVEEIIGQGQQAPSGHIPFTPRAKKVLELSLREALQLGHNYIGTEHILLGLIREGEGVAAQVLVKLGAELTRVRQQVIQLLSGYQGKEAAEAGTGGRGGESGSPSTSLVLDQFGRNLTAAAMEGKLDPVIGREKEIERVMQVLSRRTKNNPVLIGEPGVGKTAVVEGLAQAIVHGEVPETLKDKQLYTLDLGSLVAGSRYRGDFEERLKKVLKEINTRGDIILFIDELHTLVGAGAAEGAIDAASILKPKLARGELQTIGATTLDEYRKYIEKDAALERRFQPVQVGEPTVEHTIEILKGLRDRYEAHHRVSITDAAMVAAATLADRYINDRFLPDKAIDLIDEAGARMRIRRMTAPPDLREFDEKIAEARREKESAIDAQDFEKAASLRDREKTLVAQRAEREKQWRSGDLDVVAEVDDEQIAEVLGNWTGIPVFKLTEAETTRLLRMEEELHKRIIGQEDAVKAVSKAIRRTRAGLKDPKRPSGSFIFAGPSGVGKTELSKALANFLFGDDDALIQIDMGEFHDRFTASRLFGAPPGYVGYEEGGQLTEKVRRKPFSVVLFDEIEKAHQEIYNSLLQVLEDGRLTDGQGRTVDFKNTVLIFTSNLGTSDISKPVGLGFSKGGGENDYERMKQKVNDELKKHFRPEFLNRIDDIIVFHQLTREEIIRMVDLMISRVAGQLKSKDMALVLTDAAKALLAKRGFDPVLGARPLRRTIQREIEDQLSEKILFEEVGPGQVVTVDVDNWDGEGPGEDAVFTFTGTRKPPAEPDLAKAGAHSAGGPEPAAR

Target: Mycobacterium tuberculosis ClpC1, wild type (Mycobacterium tuberculosis H37Rv) (UniProt P9WPC9)
Assay: SEC; Superdex-200 (1×30 cm) in buffer A (50 mM Tris-HCl pH 7.6, 100 mM KCl, 5 mM DTT, 10% glycerol, 0.01% Triton X-100), in the absence of ATP and MgCl2; fractions checked by SDS-PAGE; both purified

“Mycobacterium tuberculosis ClpC1, wild type (from UniProt P9WPC9 1-848)” was tested. Which binding did it give?
The binding was “no binding (condition: in the absence of ATP)”.
